Data: patent US10670612B2 (Saladax Biomedical, Inc., priority 2010, dated 2020)

assay: peptide made by a vendor; conditions: whole synthesis, HPLC

In order of rising “purity (crude or final not stated)” value:
1. DAEFRHDSGYEVHMVGGVVIA (SEQ ID NO: 2) (Modified Peptide)  90%
2. DAEFRHDSGYEVHHQKEERPIGLMVGGVVIA (SEQ ID NO: 6) (Modified Peptide)  96%
3. DAEFRHDSGYEVHHQKDREPNRIGLMVGGVVIA (SEQ ID NO: 8)  97%
4. DAEFRHDSGYEVHHQKIGLMVGGVVIA (SEQ ID NO: 4)  98%
